We go through 39 compounds from the supplement of paper PMC12823440, “Inhibitors supercharge kinase turnover through native proteolytic circuits” (Nature, 2025).

Chains of the proteins cited; added tags and fusions are not shown.
UniProt P50750, whole entry: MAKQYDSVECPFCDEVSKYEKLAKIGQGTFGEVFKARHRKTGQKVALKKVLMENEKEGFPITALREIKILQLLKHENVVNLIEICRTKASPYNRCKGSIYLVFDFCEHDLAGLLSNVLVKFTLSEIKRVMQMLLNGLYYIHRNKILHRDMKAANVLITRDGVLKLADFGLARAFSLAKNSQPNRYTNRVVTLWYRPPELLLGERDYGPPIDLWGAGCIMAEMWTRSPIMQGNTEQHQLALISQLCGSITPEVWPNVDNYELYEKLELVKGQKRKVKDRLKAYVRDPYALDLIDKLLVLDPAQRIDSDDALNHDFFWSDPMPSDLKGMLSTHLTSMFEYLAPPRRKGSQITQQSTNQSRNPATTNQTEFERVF

Structures can show the parent of a compound that is named as a salt. The list shows a part of the results. Hit calls seldom repeat between salt and free forms of one compound.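 In K562 cells expressing nanoluciferase-fused kinases, luminescence was recorded at 4 h intervals between 2 and 18 h, normalized as percent of control with DMSO at 100% and a positive control at 0%. A significant (2 sigma) signal drop marks a time point as decreased. The authors' rule for a hit is not shown and takes in more than the number of time points.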

One test concerns the target CDK9 (UniProt P50750). The test can be described thus: number of time points (of 4; 2 h point missing) at which kinase-Nluc abundance scored as decreased, DMSO-normalised (count); higher = more persistent destabilization. As to conditions: 2.5 µM; K562; 2-18 h.
Regarding `Cc1cn(-c2cc(NC(=O)c3ccc(C)c(Nc4nccc(-c5cccnc5)n4)c3)cc(C(F)(F)F)c2)cn1` [Nilotinib], the “number of time points” value came to 2. Still for that read-out and setting: as for `COc1cc(Nc2c(C#N)cnc3cc(OCCCN4CCN(C)CC4)c(OC)cc23)c(Cl)cc1Cl` [Bosutinib], the figure is 0.

With `CC(C)n1nc(-c2cc3cc(O)ccc3[nH]2)c2c(N)ncnc21` [Torkinib], the “number of time points” value was found to be 0. Still for that read-out and setting: under `COc1ccc(CNC(=O)Nc2ncc([N+](=O)[O-])s2)cc1` stands 0; under `CC1(C)CNc2cc(NC(=O)c3cccnc3NCc3ccncc3)ccc21` [Motesanib (Diphosphate)], 0. Still for that read-out and setting: as for `CN1CCN(c2ccc3nc(-c4c(N)c5c(F)cccc5[nH]c4=O)[nH]c3c2)CC1` [Dovitinib (lactate)], the figure is 0. On the same count and under the same terms, under `O=C1NCCc2[nH]c(-c3ccncc3)cc21` stands 0; under `Cc1nc(Nc2ncc(C(=O)Nc3c(C)cccc3Cl)s2)cc(N2CCN(CCO)CC2)n1` [Dasatinib], 2; under `C=CC(=O)Nc1cc2c(Nc3ccc(F)c(Cl)c3)ncnc2cc1OCCCN1CCOCC1` [Canertinib (dihydrochloride)], 0. As for `CCc1cc2c(cc1-c1cnn(CC(=O)N(C)C)c1)C(C)(C)c1[nH]c3cc(C#N)ccc3c1C2=O`, the “number of time points” value came to 0. Same read-out and setting: under `CNC(=O)c1cc(Oc2ccc(NC(=O)Nc3ccc(Cl)c(C(F)(F)F)c3)cc2)ccn1` [Sorafenib] stands 0; under `Cc1cc(Nc2cc(N3CCN(C)CC3)nc(/C=C/c3ccccc3)n2)n[nH]1` [ENMD-2076 (Tartrate)], 0; under `Nc1ncnc2c1c(-c1cnc3[nH]ccc3c1)nn2C1CCCC1`, 4. Still for that read-out and setting: under `NC(=O)c1c(OCc2c(F)cc(Br)cc2F)nsc1NC(=O)NCCCCN1CCCC1` stands 0.

The same test, now with this note: 10 µM; K562; 2-18 h.
On to `C=CC(=O)N(C)CCOc1c(N)ncnc1-c1cc(F)cc(NC(=O)c2ccc(C3CC3)cc2F)c1C` [Remibrutinib], for which the “number of time points” value turned out to be 0.

For `Cc1ccc(O)cc1Nc1ccnc(Nc2cccc(C(N)=O)c2)n1` [Lck inhibitor 2], the “number of time points” value came to 0. For the compound `Fc1ccc(-c2nc(-c3ccc4ccccc4c3F)[nH]c2-c2ccncc2)cc1`, the “number of time points” value came out at 3.

For the compound `C[C@@H]1O[C@@H](Oc2c(-c3ccc(O)c(O)c3)oc3cc(O)cc(O)c3c2=O)[C@H](O)[C@H](O)[C@H]1O` [Quercitrin], the “number of time points” value is 0.

In the case of `Cc1cc2ncnn2cc1Nc1ncc2c(n1)n(C1CCOCC1)c(=O)n2C`, the “number of time points” value was 0. On the same count and under the same terms, as for `C[C@H]1CN(C2COC2)CCN1c1ccc(Nc2cc(-c3ccnc(N4CCn5c(cc6c5CC(C)(C)C6)C4=O)c3CO)cn(C)c2=O)nc1` [Fenebrutinib], the figure is 0; as for `Cc1ccc(Nc2nccc(N(C)c3ccc4c(C)n(C)nc4c3)n2)cc1S(N)(=O)=O` [Pazopanib], 0.

`Cn1cc(/C=C2\C(=O)Nc3cccnc32)c2ccccc21`: the “number of time points” value stood at 0. For the compound `Cc1cc2c(F)c(Oc3ncnn4cc(OC[C@@H](C)O)c(C)c34)ccc2[nH]1` [Brivanib], the “number of time points” value amounted to 0. With `COc1nccc(-c2c(-c3ccc(F)cc3)ncn2C2CCNCC2)n1`, the “number of time points” value stood at 0. Still for that read-out and setting: under `C=CC(=O)N1C[C@@H](Nc2ncnc3[nH]ccc23)CC[C@H]1C` [(2R,5S)-Ritlecitinib] stands 0. Regarding `Nc1ncccc1-c1nc2ccc(-c3ccccc3)nc2n1-c1ccc(C2(N)CCC2)cc1` [Miransertib], the “number of time points” value is 0. On the same count and under the same terms, under `Cc1ccc(Nc2nccc(N(C)c3ccc4c(C)n(C)nc4c3)n2)cc1S(N)(=O)=O` [Pazopanib (Hydrochloride)] stands 0. On the same count and under the same terms, under `NCCNc1ncc(C(N)=O)c(Nc2cccc(C(F)(F)F)c2)n1` [Syk Inhibitor II] stands 0; under `COc1cc(N2CCN(C)CC2)ccc1Nc1nccc(-c2cn(C)c3cnccc23)n1`, 0.

Take `CCCCCCCCCCCCc1ccc(S(=O)(=O)Nc2nncs2)cc1`: the “number of time points” value was determined as 0. The same measure, in the same setting: as for `COc1cc2ncnc(Nc3cccc(Br)c3)c2cc1OC`, the figure is 0; as for `C[C@@]1(C(=O)Nc2ccc(F)nc2)CCCN1c1nc(Nc2cc(C3CC3)n[nH]2)c2cccn2n1`, 0.

Consider `CC[C@@H]1C(=O)N(C)c2cnc(Nc3ccc(C(=O)NC4CCN(C)CC4)cc3OC)nc2N1C1CCCC1`, for which the “number of time points” value worked out at 1. The same measure, in the same setting: as for `C[C@@H]1CN(C(=O)Nc2ccc(-c3nc(N4CCOCC4)c4cnn(CCCCCCC(=O)NO)c4n3)cc2)CCO1` [HDACs/mTOR Inhibitor 1], the figure is 0; as for `CCOc1nc(NC(=O)Cc2cc(OC)ccc2OC)cc(N)c1C#N` [JNK Inhibitor VIII], 0. Still for that read-out and setting: as for `C=CC(=O)N1CCC([C@@H]2CCNc3c(C(N)=O)c(-c4ccc(Oc5ccccc5)cc4)nn32)CC1` [Zanubrutinib], the figure is 0; as for `CC(C)N(CCC(=O)c1ccc2ccccc2c1)Cc1ccccc1`, 0. On the same count and under the same terms, under `CC(C)[C@@](C)(O)[C@@H]1CN(c2nc(-c3[nH]nc4ncccc34)c(F)cc2Cl)CCN1` stands 0; under `CNC(=O)c1cc(Oc2ccc(NC(=O)Nc3ccc(Cl)c(C(F)(F)F)c3)cc2)ccn1` [Sorafenib (Tosylate)], 0.
